According to paper PMC4024641:
These are yes or no findings as the source states them, for the method shown. Binding seen in cells or lysates may run through a third protein. These calls come from enrichment with a bait or labelling near it, and not all partners need be listed. Sequences can lack the tags named with a protein.

Columns and labels:
Experiment in all cases: affinity purification with mass spectrometry; 3×FLAG- or 13×myc-tagged bait purified from S. pombe cell extract on α-FLAG (M2) or α-myc (9E10) antibody cross-linked to Protein G Dynabeads, 4°C for 3 h, IP buffer (20 mM HEPES pH 7.5, 100 mM NaCl, 5 mM MgCl2, 1 mM EDTA, 10% glycerol, 0.25% Triton X-100, 0.5 mM DTT); LC-MS/MS; Red1-3×FLAG also from iss10Δ, rmn1Δ and Mtl1 knockdown cells
Mtl1-3×FLAG (S. pombe) = molecular target: T1, Mtl1-3×FLAG (S. pombe) (UniProt O13799)
T1 sequence: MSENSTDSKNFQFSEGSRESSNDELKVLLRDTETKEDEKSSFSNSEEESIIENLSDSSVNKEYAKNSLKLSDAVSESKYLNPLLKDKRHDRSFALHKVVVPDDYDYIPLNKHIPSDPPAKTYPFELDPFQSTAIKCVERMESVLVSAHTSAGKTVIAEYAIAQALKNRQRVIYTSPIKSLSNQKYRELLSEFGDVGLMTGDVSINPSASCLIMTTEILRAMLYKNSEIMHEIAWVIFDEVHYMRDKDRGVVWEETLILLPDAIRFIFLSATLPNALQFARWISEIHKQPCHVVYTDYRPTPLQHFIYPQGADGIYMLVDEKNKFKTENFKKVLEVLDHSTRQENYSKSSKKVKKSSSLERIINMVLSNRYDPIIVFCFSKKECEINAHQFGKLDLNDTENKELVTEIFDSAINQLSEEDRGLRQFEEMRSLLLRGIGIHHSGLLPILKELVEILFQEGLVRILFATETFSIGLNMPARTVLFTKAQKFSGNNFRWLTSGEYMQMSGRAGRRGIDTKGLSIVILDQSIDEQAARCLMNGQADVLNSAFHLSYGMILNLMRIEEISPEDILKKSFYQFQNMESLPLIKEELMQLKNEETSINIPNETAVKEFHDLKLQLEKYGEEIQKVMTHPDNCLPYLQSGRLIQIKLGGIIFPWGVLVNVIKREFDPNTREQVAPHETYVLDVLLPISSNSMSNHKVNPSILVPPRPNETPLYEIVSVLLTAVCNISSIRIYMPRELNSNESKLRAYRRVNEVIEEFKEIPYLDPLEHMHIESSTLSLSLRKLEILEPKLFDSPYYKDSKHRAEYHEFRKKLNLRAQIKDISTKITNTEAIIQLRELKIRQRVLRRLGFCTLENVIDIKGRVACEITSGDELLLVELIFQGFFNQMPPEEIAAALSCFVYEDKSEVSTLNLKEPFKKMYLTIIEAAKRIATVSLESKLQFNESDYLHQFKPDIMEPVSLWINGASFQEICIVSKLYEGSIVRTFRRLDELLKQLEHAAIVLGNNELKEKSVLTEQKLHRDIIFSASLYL

Red5-3×FLAG (S. pombe) = molecular target: T2, Red5-3×FLAG (S. pombe) (UniProt O74823)
T2 sequence: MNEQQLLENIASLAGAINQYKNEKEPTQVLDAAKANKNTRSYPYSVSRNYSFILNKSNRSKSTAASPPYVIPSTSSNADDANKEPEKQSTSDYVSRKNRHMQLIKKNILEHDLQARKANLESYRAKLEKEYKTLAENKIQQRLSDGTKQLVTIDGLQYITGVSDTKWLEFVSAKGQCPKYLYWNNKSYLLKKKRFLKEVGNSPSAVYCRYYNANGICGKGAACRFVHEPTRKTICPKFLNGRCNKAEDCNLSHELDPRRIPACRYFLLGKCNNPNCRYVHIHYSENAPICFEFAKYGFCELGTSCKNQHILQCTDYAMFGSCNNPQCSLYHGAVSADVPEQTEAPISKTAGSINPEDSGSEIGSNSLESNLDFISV

Red1-3×FLAG (S. pombe) = molecular target: T3, Red1-3×FLAG (S. pombe) (UniProt Q9UTR8)
T3 sequence: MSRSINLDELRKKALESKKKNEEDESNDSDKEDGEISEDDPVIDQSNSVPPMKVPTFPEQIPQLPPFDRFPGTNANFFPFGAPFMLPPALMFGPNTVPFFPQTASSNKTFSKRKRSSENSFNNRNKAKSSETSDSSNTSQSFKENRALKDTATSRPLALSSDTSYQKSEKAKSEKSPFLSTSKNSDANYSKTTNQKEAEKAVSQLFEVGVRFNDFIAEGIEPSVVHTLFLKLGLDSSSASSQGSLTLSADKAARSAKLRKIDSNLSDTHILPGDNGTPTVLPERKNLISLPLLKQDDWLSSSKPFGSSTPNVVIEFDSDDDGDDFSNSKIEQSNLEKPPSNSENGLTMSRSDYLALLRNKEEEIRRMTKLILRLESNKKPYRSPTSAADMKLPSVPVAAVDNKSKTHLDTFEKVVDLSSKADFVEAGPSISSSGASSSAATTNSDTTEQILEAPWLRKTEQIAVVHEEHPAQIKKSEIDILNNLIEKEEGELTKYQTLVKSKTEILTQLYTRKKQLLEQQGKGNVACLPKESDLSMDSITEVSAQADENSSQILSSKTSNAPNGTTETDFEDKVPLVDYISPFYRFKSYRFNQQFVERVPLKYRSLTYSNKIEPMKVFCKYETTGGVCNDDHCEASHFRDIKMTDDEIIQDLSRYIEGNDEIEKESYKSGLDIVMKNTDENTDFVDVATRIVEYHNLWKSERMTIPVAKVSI

Rmn1-13×myc (S. pombe) = molecular target: T4, Rmn1-13×myc (S. pombe) (UniProt Q9USP9)
T4 sequence: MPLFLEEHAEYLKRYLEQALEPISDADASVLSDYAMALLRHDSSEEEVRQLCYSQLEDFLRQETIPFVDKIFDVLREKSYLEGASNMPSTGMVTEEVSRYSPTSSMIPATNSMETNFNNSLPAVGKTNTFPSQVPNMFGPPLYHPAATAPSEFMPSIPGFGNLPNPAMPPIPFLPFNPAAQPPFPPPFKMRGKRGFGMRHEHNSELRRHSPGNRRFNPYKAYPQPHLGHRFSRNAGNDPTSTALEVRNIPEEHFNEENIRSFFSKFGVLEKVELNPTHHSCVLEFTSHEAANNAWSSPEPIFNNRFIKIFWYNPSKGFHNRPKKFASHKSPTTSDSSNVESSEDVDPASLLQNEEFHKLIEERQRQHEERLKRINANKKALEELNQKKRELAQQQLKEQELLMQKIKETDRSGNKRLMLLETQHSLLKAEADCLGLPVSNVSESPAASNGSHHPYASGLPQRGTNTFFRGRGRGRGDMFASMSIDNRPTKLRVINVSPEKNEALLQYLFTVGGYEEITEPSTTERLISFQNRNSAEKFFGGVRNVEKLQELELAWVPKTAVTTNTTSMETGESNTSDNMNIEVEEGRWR

Ars2-3×FLAG (S. pombe) = molecular target: T5, Ars2-3×FLAG (S. pombe) (UniProt O94326)
T5 sequence: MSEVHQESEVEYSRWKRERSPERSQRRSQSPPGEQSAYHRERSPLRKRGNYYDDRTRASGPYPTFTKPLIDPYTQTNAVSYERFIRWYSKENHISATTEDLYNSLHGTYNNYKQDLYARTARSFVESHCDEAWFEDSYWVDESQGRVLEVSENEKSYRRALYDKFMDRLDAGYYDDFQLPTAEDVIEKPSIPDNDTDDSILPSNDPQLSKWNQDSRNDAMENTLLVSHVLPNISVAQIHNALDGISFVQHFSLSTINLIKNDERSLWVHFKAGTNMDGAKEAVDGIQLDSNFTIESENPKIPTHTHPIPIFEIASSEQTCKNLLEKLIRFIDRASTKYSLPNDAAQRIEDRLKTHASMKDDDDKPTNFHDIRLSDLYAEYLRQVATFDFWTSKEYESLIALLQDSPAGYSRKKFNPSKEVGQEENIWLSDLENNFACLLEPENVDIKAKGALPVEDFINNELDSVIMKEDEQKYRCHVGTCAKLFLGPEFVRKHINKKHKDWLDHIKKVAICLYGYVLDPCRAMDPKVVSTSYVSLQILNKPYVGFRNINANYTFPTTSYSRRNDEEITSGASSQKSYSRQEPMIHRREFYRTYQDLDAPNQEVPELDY

Measured: binding

B1: Rmn1-13×myc (protein, UniProt Q9USP9 1-589)
chain: T4 sequence
binds: Mtl1-3×FLAG (S. pombe) | Red5-3×FLAG (S. pombe) | Red1-3×FLAG (S. pombe)

B2: Mtl1-3×FLAG (protein, UniProt O13799 1-1030)
chain: T1 sequence
binds: Rmn1-13×myc (S. pombe) | Red5-3×FLAG (S. pombe) | Ars2-3×FLAG (S. pombe)
